These are yes or no findings as the source states them, for the method shown. A result given as binding can be weak or reduced; the word gives no strength.
Target: pGBKT7-N500ΔRED (Arabidopsis thaliana)
Assay: two-hybrid; yeast two-hybrid, pGBKT7 bait and pGADT7 prey in S. cerevisiae strain Gold; growth on SD/-His/-Leu/-Trp/-Ade at 30°C for 3 days

B1: pGADT7-MSI4 (protein, UniProt O22607 1-507)
chain: MESDEAAAVSPQATTPSGGTGASGPKKRGRKPKTKEDSQTPSSQQQSDVKMKESGKKTQQSPSVDEKYSQWKGLVPILYDWLANHNLVWPSLSCRWGPQLEQATYKNRQRLYLSEQTDGSVPNTLVIANCEVVKPRVAAAEHISQFNEEARSPFVKKYKTIIHPGEVNRIRELPQNSKIVATHTDSPDVLIWDVETQPNRHAVLGAANSRPDLILTGHQDNAEFALAMCPTEPFVLSGGKDKSVVLWSIQDHITTIGTDSKSSGSIIKQTGEGTDKNESPTVGPRGVYHGHEDTVEDVAFSPTSAQEFCSVGDDSCLILWDARTGTNPVTKVEKAHDADLHCVDWNPHDDNLILTGSADNTVRLFDRRKLTANGVGSPIYKFEGHKAAVLCVQWSPDKSSVFGSSAEDGLLNIWDYDRVSKKSDRAAKSPAGLFFQHAGHRDKVVDFHWNASDPWTIVSVSDDCETTGGGGTLQIWRMSDLIYRPEEEVVAELEKFKSHVMTCASKP
With B1 as the binder, how does the binding read?
Its binding is “binds”.

From paper PMC7413564, “Phase separation of Arabidopsis EMB1579 controls transcription, mRNA splicing, and development” (PLoS Biology, 2020)
